Results deposited as PubChem BioAssay AID504786 (Drosophila RNAi Screening Center, 2011).
Screen: 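Fly genes required for HIF-dependent transcription when hypoxia is mimicked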 (primary screen). System: Drosophila S2 cells with a stable HIF luciferase reporter. Reagents: long dsRNA against Drosophila genes, about 0.2 µg dsRNA per well of a 384-well plate. Duration: three days of knock-down, then 20 h of DFO before reading. Challenge: desferrioxamine (DFO) at 100 µM, an iron chelator that mimics hypoxia, for 20 h. Measurement: 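Firefly luciferase driven by the mouse ldh-a hypoxia-response element, measured after 20 h of 100 µM DFO; z-scores per plate, higher means more signal lost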. Scale: z-score: higher = stronger loss of HIF reporter signal.
The screen tested about 21,000 reagents; this is an unselected part of those with a known target gene and a result. 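Primary screen; positive scores mean lost reporter signal, so the sign may be inverted from the usual convention.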 Names joined by + are all predicted targets of the reagent. Reagent sequences are not shown.

| gene | dsRNA | z-score, replicate 1 | z-score, replicate 2 | z-score, replicate 3 | z-score, replicate 4 |
| --- | --- | --- | --- | --- | --- |
| Lapsyn (GeneID 37418) | DRSC04249 | -0.3 | -0.6 | – | – |
| Cda5 (GeneID 33158) | DRSC00003 | -0.2 | 0 | 0.1 | -0.1 |
| Cda5 (GeneID 33158) | DRSC00529 | -0.2 | -0.1 | – | – |
| Cda5 (GeneID 33158) | DRSC00532 | -0.3 | -0.3 | – | – |
| CG14301 (GeneID 42235) | DRSC14780 | -1.1 | 0.1 | – | – |
| CG11307 (GeneID 40400) | DRSC11648 | -0.3 | -0.4 | – | – |
| CAH7 (GeneID 41238) | DRSC15524 | -0.3 | -0.2 | – | – |
| CG13995 (GeneID 33851) | DRSC00907 | 0.4 | -0.8 | -0.2 | -0.4 |
| CG13995 (GeneID 33851) | DRSC02327 | -0.3 | -0.6 | – | – |
| vilya (GeneID 31264) | DRSC18588 | -0.2 | -0.9 | – | – |
| rumi (GeneID 326122) | DRSC15177 | -0.2 | 0 | – | – |
| CG31191 (GeneID 42477) | DRSC13455 | -0.4 | -0.2 | – | – |
| CG31191 (GeneID 42477) | DRSC15214 | 0.4 | -0.4 | – | – |
| CG31191 (GeneID 42477) | DRSC15215 | 1.1 | -0.2 | – | – |
| CG14111 (GeneID 39497) | DRSC10114 | -0.3 | -0.5 | – | – |
| nito (GeneID 35756) | DRSC05943 | -0.5 | -0.9 | – | – |
| CG31659 (GeneID 318875) | DRSC00760 | -0.1 | -0.5 | – | – |
| CG15347 (GeneID 31779) | DRSC18031 | -0.2 | -0.7 | – | – |
| ATPsynG (GeneID 46069) | DRSC02928 | 0.5 | 0.1 | 0.1 | 1.2 |
| Vtld + CG42529 | DRSC10102 | -0.3 | -0.4 | – | – |
| mRpL49 (GeneID 32242) | DRSC19908 | 1.1 | 0.9 | – | – |
| CG15539 (GeneID 43627) | DRSC15075 | -0.3 | -0.3 | – | – |
| CG15498 (GeneID 42548) | DRSC15040 | -0.1 | 0.1 | – | – |
| Saf-B (GeneID 42958) | DRSC16167 | 0.2 | 0.6 | – | – |
| CG42562 (GeneID 37008) | DRSC06453 | -0.1 | -0.3 | – | – |
| Prx2 (GeneID 53578) | DRSC20256 | -0.3 | -0.3 | – | – |
| CG2652 (GeneID 31250) | DRSC18501 | -0.2 | -0.4 | 0.3 | 0 |
| CG3918 (GeneID 31585) | DRSC18331 | 1.4 | 3.7 | – | – |
| HLH3B (GeneID 31249) | DRSC18669 | -0.2 | -0.9 | – | – |
| CG31741 (GeneID 35079) | DRSC02887 | -0.1 | -0.1 | – | – |
| CG1674 (GeneID 43780) | DRSC17142 | -0.4 | -0.1 | – | – |
| CG11583 (GeneID 326206) | DRSC08202 | 0.6 | 2.8 | – | – |
| l(2)37Cb (GeneID 35192) | DRSC02095 | 0.5 | 1.4 | – | – |
| Src64B (GeneID 48973) | DRSC08700 | -0.2 | 0 | – | – |
| CG5079 (GeneID 43089) | DRSC15713 | 0.2 | -0.9 | – | – |
| CG15597 (GeneID 40767) | DRSC12283 | -0.2 | -0.1 | – | – |
| CG32276 (GeneID 251645) | DRSC08027 | -0.4 | 0.2 | – | – |
| CG15635 (GeneID 33665) | DRSC00470 | -0.3 | -0.2 | -0.6 | -0.3 |
| Lcp2 (GeneID 35818) | DRSC07456 | -0.2 | -0.3 | – | – |
| ATPsynB (GeneID 39143) | DRSC09659 | 1.5 | 0.8 | – | – |
| Dhit (GeneID 37037) | DRSC07411 | -0.2 | -0.3 | – | – |
| CG14892 (GeneID 42016) | DRSC15014 | 0.3 | 0.3 | – | – |
| CG7607 (GeneID 39263) | DRSC10889 | -0.2 | -0.2 | – | – |
| MED19 (GeneID 39987) | DRSC10516 | 1.1 | 1.6 | – | – |
| mamo (GeneID 32353) | DRSC19370 | -0.4 | -0.5 | – | – |
| CG31528 (GeneID 318785) | DRSC12003 | 0.1 | 0.4 | – | – |
| Fum2 (GeneID 31606) | DRSC18345 | -0.2 | 0.7 | – | – |
| vex (GeneID 32033) | DRSC19481 | -0.3 | -0.8 | – | – |
| vex (GeneID 32033) | DRSC19651 | -0.2 | -0.6 | – | – |
| COX6AL2 + Ir75d | DRSC10081 | -0.1 | 0.1 | – | – |
| RASSF8 (GeneID 43096) | DRSC15707 | -0.3 | -0.3 | – | – |
| CG5721 (GeneID 37084) | DRSC06945 | -0.2 | -0.6 | – | – |

Just “z-score, replicate 2”, for 8 of the entries above:
CG14892 (GeneID 42016) [DRSC15014]	0.3
CG7607 (GeneID 39263) [DRSC10889]	-0.2
MED19 (GeneID 39987) [DRSC10516]	1.6
mamo (GeneID 32353) [DRSC19370]	-0.5
CG31528 (GeneID 318785) [DRSC12003]	0.4
Fum2 (GeneID 31606) [DRSC18345]	0.7
vex (GeneID 32033) [DRSC19481]	-0.8
vex (GeneID 32033) [DRSC19651]	-0.6

The list goes on:
| gene | dsRNA | z-score, replicate 1 | z-score, replicate 2 | z-score, replicate 3 | z-score, replicate 4 |
| --- | --- | --- | --- | --- | --- |
| CG7483 (GeneID 40987) | DRSC16249 | -0.3 | -0.5 | – | – |
| Drsl5 (GeneID 38409) | DRSC08159 | -0.3 | -0.3 | – | – |
| asrij (GeneID 37637) | DRSC04175 | 1.3 | 0.4 | – | – |
| CG15550 (GeneID 43666) | DRSC15088 | 0 | -0.2 | – | – |
| Gpdh3 (GeneID 42624) | DRSC13561 | -0.1 | -0.3 | – | – |
| Gpdh3 (GeneID 42624) | DRSC15325 | -1 | -0.7 | – | – |
| CG10984 (GeneID 39446) | DRSC09817 | -0.1 | -0.4 | – | – |
| Or42b (GeneID 35516) | DRSC04913 | -0.3 | 0.3 | – | – |
| CG16749 (GeneID 41111) | DRSC15146 | -0.4 | 0.4 | – | – |
| spict (GeneID 34681) | DRSC02157 | -0.3 | -0.7 | – | – |
| CG4770 (GeneID 42375) | DRSC15639 | -0.9 | -0.4 | – | – |
| CG13445 (GeneID 39719) | DRSC09992 | 0.3 | -0.2 | – | – |
| CG7011 + Prp31 | DRSC10760 | -0.2 | -0.3 | – | – |
| CG6142 (GeneID 43178) | DRSC15976 | -0.4 | -0.3 | – | – |
| CG12170 (GeneID 40692) | DRSC12199 | -0.4 | -0.6 | 0.1 | -0.3 |
| Fer1 (GeneID 2768661) | DRSC12507 | -0.1 | -0.1 | – | – |
| Fer1 (GeneID 2768661) | DRSC12555 | -0.4 | 0.1 | – | – |
| Mec2 (GeneID 32905) | DRSC20054 | -0.2 | -0.2 | – | – |
| CG5910 (GeneID 40264) | DRSC11786 | -0.3 | -0.3 | – | – |
| CG13733 (GeneID 39951) | DRSC10061 | -0.1 | -0.3 | – | – |
| CG17919 (GeneID 40780) | DRSC12571 | -0.4 | -0.6 | – | – |
| CG12496 (GeneID 31226) | DRSC18602 | -0.4 | 0.1 | – | – |
| CG12121 (GeneID 31866) | DRSC17816 | -0.4 | -0.3 | – | – |
| CG15145 (GeneID 35064) | DRSC02446 | -0.2 | -0.5 | – | – |
| scra (GeneID 35696) | DRSC07679 | -0.2 | 0.3 | – | – |
| CG5727 (GeneID 34356) | DRSC02882 | -0.2 | -0.5 | – | – |
| CG17219 (GeneID 33515) | DRSC00486 | -0.2 | -0.7 | – | – |
| CG31463 (GeneID 40978) | DRSC14346 | -0.1 | -0.1 | – | – |
| CG12945 (GeneID 41204) | DRSC14573 | 0.1 | -0.4 | – | – |
| CG31468 (GeneID 251937) | DRSC13637 | 0 | 0.2 | – | – |
| CASK (GeneID 42567) | DRSC14588 | -0.5 | -0.5 | -0.3 | -0.2 |
| CASK (GeneID 42567) | DRSC16597 | 0.1 | 0 | – | – |
| CASK (GeneID 42567) | DRSC16598 | 1 | 0.1 | – | – |
